Target: T1, hTLR8 (Homo sapiens, UniProt Q9NR97)
T1 construct: expressed in transfected cells; host or cells: HEK293
T1 sequence (Q9NR97 27-1041): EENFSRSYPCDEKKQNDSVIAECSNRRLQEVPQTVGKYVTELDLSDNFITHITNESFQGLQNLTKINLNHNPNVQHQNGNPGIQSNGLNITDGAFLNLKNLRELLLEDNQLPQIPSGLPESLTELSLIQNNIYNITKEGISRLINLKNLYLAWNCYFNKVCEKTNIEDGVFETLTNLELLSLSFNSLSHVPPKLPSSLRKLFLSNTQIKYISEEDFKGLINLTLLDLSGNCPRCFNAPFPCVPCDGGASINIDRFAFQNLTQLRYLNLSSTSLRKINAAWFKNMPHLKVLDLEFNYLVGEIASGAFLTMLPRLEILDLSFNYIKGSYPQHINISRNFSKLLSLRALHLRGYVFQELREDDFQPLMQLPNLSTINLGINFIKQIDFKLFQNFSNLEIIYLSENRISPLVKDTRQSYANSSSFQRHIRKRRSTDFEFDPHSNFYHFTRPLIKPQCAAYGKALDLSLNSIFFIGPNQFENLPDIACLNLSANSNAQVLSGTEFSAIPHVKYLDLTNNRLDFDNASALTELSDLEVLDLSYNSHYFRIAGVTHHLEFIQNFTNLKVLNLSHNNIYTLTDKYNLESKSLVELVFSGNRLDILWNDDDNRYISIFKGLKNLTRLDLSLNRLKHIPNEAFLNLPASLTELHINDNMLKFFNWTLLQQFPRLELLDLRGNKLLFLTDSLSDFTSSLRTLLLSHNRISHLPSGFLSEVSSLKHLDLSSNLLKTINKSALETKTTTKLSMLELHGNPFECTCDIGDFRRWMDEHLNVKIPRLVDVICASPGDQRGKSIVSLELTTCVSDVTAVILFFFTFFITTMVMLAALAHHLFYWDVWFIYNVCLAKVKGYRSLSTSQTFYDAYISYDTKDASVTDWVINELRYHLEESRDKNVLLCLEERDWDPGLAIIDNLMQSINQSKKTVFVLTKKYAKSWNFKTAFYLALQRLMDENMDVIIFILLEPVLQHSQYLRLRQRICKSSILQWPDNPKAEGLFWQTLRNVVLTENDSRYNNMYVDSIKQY
Test: Human TLR/NLR agonist screening: NF-κB activation in HEK293 cells expressing hTLR8
Type: cell-based
Details: agonist mode; Control+ = CL075 1 μg/mL
Excerpt: The media added to the wells was designed for the detection of NF-κB induced SEAP expression.

**Q.** How did the “Fold induction (ratio of average induced value to average non-induced value)” value turn out when `CCCc1nc2c(N)nc3ccccc3c2s1` [CL075] was run?
**A.** 19

Reference: patent US20220233469A1, “METHODS, COMPOSITIONS AND DEVICES FOR TREATING NEUROINFLAMMATORY CONDITIONS” (ALYRA BIOTECH PTY LTD, priority 2019, published 2022)
